Source: the supplement of paper PMC9015667
This is one part of the list. Repeats are few or missing, and single values can be far off.

The compounds below were run on M249R (matched melanoma line resistant to BRAF inhibitors) (assay: reduction in cell viability relative to untreated/vehicle; higher = more growth inhibition). Conditions: 200 nM; 72 h.
With `CC1(C)C(N(O)C(=O)Nc2ccc(Cl)cc2)N(c2ccc(Cl)cc2)C(=O)N1CC(=O)NN=CC=Cc1ccc([N+](=O)[O-])o1` (stereo not given) [Eeyarestatin I] the “reduction in cell viability” value was 3.86%.
With `COc1cc2ncnc(Nc3ccc(F)c(Cl)c3)c2cc1NC(=O)/C=C/CN1CCCCC1` [Dacomitinib] the “reduction in cell viability” value was under 0%.
`CNC(=O)CN1CCC(Oc2cc3c(Nc4cccc(Cl)c4F)ncnc3cc2OC)CC1` [Sapitinib] was tested, and the “reduction in cell viability” value was under 0%.
In the case of `COc1c(OCCCN2CCOCC2)ccc2c1N=C(NC(=O)c1cnc(N)nc1)N1CCN=C21`, the “reduction in cell viability” value is reported as under 0%.
For `C=CC(=O)N1CCc2ccc(-n3c(=O)ccc4cnc5ccc(-c6cnn(C)c6)cc5c43)cc21`, the “reduction in cell viability” value was under 0%.
In the case of `CC[C@H](/C=C/[C@@H](C)[C@H]1CC[C@H]2[C@@H]3CC=C4C[C@@H](O)CC[C@]4(C)[C@H]3CC[C@]12C)C(C)C` [Stigmasterol], the “reduction in cell viability” value is reported as under 0%.
`C=C1C[C@@]2(O)O[C@@]3(C[C@H]2C(C)C)[C@@H](C)CC[C@@H]13` [Curcumol] was tested, and the “reduction in cell viability” value was under 0%.
`Cc1ccc(-c2ncn(-c3ccc(Nc4nccc(-c5cccc(N6CCOCC6)c5)n4)cc3)n2)cn1` was tested, and the “reduction in cell viability” value was under 0%.
For `CN1CCC(=C2c3ccccc3CC(=O)c3sccc32)CC1` [Ketotifen], the “reduction in cell viability” value was under 0%.
`CCCCOc1ccc(C(=O)Nc2ccc(F)cc2F)cc1` was tested, and the “reduction in cell viability” value was under 0%.
For `CCCCCCCCCCC[C@@H](C[C@@H]1OC(=O)[C@H]1CCCCCC)OC(=O)[C@H](CC(C)C)NC=O` [Orlistat], the “reduction in cell viability” value was under 0%.
For `CC1=C[C@@H]2[C@H]([C@@H](O)C[C@@]3(C)[C@H]2C[C@@H](C)[C@]3(O)C(=O)CO)[C@@]2(C)Cc3cnn(-c4ccccc4)c3C=C12` [Deacetyl cortivazol], the “reduction in cell viability” value was under 0%.
With `COC(=O)Nc1nc2cc(C(=O)c3ccc(F)cc3)ccc2[nH]1` [Flubendazole] the “reduction in cell viability” value was 9.51%.

Each compound was assayed on UACC62P (parental melanoma line) in the same assay as above. Conditions: 200 nM; 72 h.
`CC(C)[C@H](C(=O)Nc1ccc(C(=O)NO)cc1)c1ccccc1` was tested, and the “reduction in cell viability” value was 33.7%.
`Cc1cn[nH]c1` [Fomepizole] was tested, and the “reduction in cell viability” value was under 0%.
With `CC(C)NCC(O)c1ccc(O)c(O)c1` (stereo not given) [Isoproterenol] the “reduction in cell viability” value was under 0%.
In the case of `Cc1ccc(NC(=O)C2(c3ccc4c(c3)OC(F)(F)O4)CC2)nc1-c1cccc(C(=O)O)c1` [Lumacaftor], the “reduction in cell viability” value is reported as under 0%.
For `CCOc1cc(N2CCC(O)CC2)ccc1Nc1ncc2c(n1)N(C)c1ccccc1C(=O)N2C`, the “reduction in cell viability” value was 10.1%.
With `Clc1ccc(CCC(Cn2ccnc2)Sc2c(Cl)cccc2Cl)cc1` (stereo not given) [Butoconazole nitrate] the “reduction in cell viability” value was under 0%.
For `COc1ccc(C2CC(c3ccccc3)=NN2c2ccc(S(N)(=O)=O)cc2)cc1` (stereo not given), the “reduction in cell viability” value was under 0%.
For `O=c1[nH]nc(OCCCc2ccc(Cl)cc2)c(NCc2cccnc2)c1Br` [Parogrelil], the “reduction in cell viability” value was under 0%.
For `COc1cc(N2CCC(N3CCN(C)CC3)CC2)ccc1Nc1ncnc(Nc2ccccc2S(=O)(=O)C(C)C)n1`, the “reduction in cell viability” value was under 0%.
`C[C@H](NCc1ccc2c(c1)nc(NC(=O)c1ccc(-c3cn[nH]c3)s1)n2CCc1ccccc1)C(C)(C)C` was tested, and the “reduction in cell viability” value was 90%.
In the case of `Nc1nc(OCc2ccccc2)c2nc[nH]c2n1` [O6-Benzylguanine], the “reduction in cell viability” value is reported as under 0%.
`CC1(C)OC2=C(C(=O)c3ccccc3C2=O)[C@H](NCc2ccccc2)[C@@H]1O` was tested, and the “reduction in cell viability” value was 0.91%.
`CCC(=O)O[C@]1(C(=O)CO)CC[C@H]2[C@@H]3CCC4=CC(=O)CC[C@]4(C)[C@H]3CC[C@@]21C` [17 alpha-propionate] was tested, and the “reduction in cell viability” value was under 0%.
For `C=CC(=O)Nc1cccc(Oc2nc(Nc3ccc(N4CCN(C)CC4)cc3OC)ncc2Cl)c1`, the “reduction in cell viability” value was under 0%.
In the case of `Cc1[nH]c2ccccc2c1CCNCc1ccc(/C=C/C(=O)NO)cc1` [Panobinostat (LBH589)], the “reduction in cell viability” value is reported as 88.8%.
For `Cc1c(-c2cccc3c(CCCOc4cccc5ccccc45)c(C(=O)O)n(Cc4cccnc4)c23)c(COc2ccc(N3CCN([S+](=O)([O-])N(C)C)CC3)cc2)nn1C`, the “reduction in cell viability” value was under 0%.
For `O=C(NCc1ccccc1)c1csc(Nc2ccncn2)n1` [Thiazovivin], the “reduction in cell viability” value was under 0%.
`CNc1nc(Nc2ccc(C(=O)N3CCOCC3)cc2OC)ncc1Cl` was tested, and the “reduction in cell viability” value was under 0%.
For `O=C(CCCCCCC(=O)Nc1ccc([C@H]2O[C@@H](CSc3nc(-c4ccccc4)c(-c4ccccc4)o3)C[C@@H](c3ccc(CO)cc3)O2)cc1)NO` [Tubacin], the “reduction in cell viability” value was under 0%.
In the case of `CC1(C)CCC[C@]2(C)[C@H]3CC(=O)O[C@]3(C)CC[C@@H]12` [Sclareolide], the “reduction in cell viability” value is reported as 1.22%.
`N#Cc1c(O)c2c(-c3ccc(-c4ccccc4O)cc3)csc2[nH]c1=O` was tested, and the “reduction in cell viability” value was under 0%.
`O=c1[nH]c(=O)n([C@H]2C[C@H](O)[C@@H](CO)O2)cc1F` [Floxuridine] was tested, and the “reduction in cell viability” value was 24.9%.
